The experiment addresses T1, Flag-D3 (NIH3T3) (UniProt P30282).
T1 sequence: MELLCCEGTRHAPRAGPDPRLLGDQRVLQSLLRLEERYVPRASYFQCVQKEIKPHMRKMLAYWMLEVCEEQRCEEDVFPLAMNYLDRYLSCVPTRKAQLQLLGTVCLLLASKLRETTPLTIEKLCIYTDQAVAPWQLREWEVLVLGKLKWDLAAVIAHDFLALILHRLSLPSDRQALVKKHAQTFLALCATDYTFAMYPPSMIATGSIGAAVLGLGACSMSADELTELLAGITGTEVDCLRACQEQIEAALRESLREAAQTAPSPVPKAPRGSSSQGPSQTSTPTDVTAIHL
Kind of experiment: co-IP; NIH3T3 co-transfected with HA-GFP or HA-Fbxl8 (wild type or deletion mutants) and Flag-D3, MG132 (20 μM) for 4 h; anti-Flag beads.

These are yes or no findings as the source states them, for the method shown. Binding seen in cells or lysates may run through a third protein. Binding calls can cover weak binding; strength is not graded here. Where a sequence is shown, tags or fusion partners need not be part of it.

As for “HA-Fbxl8ΔC3 (NIH3T3) (domain or fragment)”, the binding result is reported as “binds”.

The values are drawn from publication PMC7808939.
